# Source: patent US20180256495A1 (MEDRx Co., Ltd., priority 2008, published 2018)
# Assay: Evaluation test of transdermal absorbability (skin penetrability) with a Franz diffusion cell
# Format: in vitro ADME
# Conditions: free basic drug, liquid preparation 2 w/w %, rat skin, 32° C.
smiles,measurement,value
COc1cc2c(cc1OC)C(=O)C(CC1CCN(Cc3ccccc3)CC1)C2 (stereo not shown) [donepezil],Penetrated Amount (amount of skin-penetrated drug during 3 hours),25 μg/cm^2
